{"source": "PubChem BioAssay AID652243 – Drosophila RNAi Screening Center – 2013", "test": "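Knock-downs that decrease or increase androgen receptor reporter signal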 (primary screen)", "cell system": "Drosophila S2R+ cells", "reagent": "long dsRNA against Drosophila genes", "timing": "72 h (48 h, then 24 h hormone)", "conditions": "synthetic androgen R1881 at 10 nM for 24 h", "measurement": "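Per-well raw luminescence of the androgen-driven firefly reporter and of the Renilla control, two replicates each, without normalisation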", "direction": "firefly reporter light: higher = more light from androgen-responsive reporter; Renilla control light: higher = more constitutive control signal (cell number, transfection)", "rule for the call": "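Hit when the log firefly-to-Renilla ratio dropped or increased by a fixed fold versus the mean of GFP or LacZ controls across duplicate plates; lowering cut given as 1.5 and as 3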", "meaning of the calls": "active = hit: reporter lowered or raised; inactive = no hit", "note": "In all, the deposit lists about 24,000 reagents; shown is a random part of those with a known target gene and a result. Of all reagents, 246 (1%) got an active call. 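Plates not normalised; calls are printed but the firefly/Renilla ratio behind them is not deposited; fold cut for lowering reported inconsistently.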 The raw values are shown without normalisation. A number with no mark means an inactive call. The record does not give: the amount of reagent."}
{"predicted target": "CG14830", "amplicon": "DRSC08876", "firefly reporter light, replicate 1": 1.24e5, "firefly reporter light, replicate 2": 1.25e5, "Renilla control light, replicate 1": 3.78e5, "Renilla control light, replicate 2": 2.87e5}
{"predicted target": "Slc45-1", "amplicon": "DRSC10427", "firefly reporter light, replicate 1": 1.88e5, "firefly reporter light, replicate 2": 2.21e5, "Renilla control light, replicate 1": 2.26e6, "Renilla control light, replicate 2": 1.94e6}
{"predicted target": "CG9849", "amplicon": "DRSC04573", "firefly reporter light, replicate 1": 2.92e5, "firefly reporter light, replicate 2": 2.71e5, "Renilla control light, replicate 1": 2.18e6, "Renilla control light, replicate 2": 2.52e6}
{"predicted target": "CG16781", "amplicon": "DRSC18117", "firefly reporter light, replicate 1": 3.09e5, "firefly reporter light, replicate 2": 4.25e5, "Renilla control light, replicate 1": 3.73e6, "Renilla control light, replicate 2": 4.28e6}
{"predicted target": "CG16781", "amplicon": "DRSC28112", "firefly reporter light, replicate 1": 4.35e5, "firefly reporter light, replicate 2": 4.47e5, "Renilla control light, replicate 1": 1.73e6, "Renilla control light, replicate 2": 1.78e6}
{"predicted target": "Ir67b (Ionotropic receptor 67b)", "amplicon": "DRSC09876", "firefly reporter light, replicate 1": 1.54e5, "firefly reporter light, replicate 2": 1.75e5, "Renilla control light, replicate 1": 1.70e6, "Renilla control light, replicate 2": 1.44e6}
{"predicted target": "CG15343", "amplicon": "DRSC18028", "firefly reporter light, replicate 1": 3.65e5, "firefly reporter light, replicate 2": 4.14e5, "Renilla control light, replicate 1": 3.79e6, "Renilla control light, replicate 2": 3.31e6}
{"predicted target": "Kcmf1 (Potassium channel modulatory factor 1)", "amplicon": "DRSC14459", "firefly reporter light, replicate 1": 40047, "firefly reporter light, replicate 2": 43812, "Renilla control light, replicate 1": 1.92e5, "Renilla control light, replicate 2": 2.31e5}
{"predicted target": "Kcmf1 (Potassium channel modulatory factor 1)", "amplicon": "DRSC26004", "firefly reporter light, replicate 1": 5.09e5, "firefly reporter light, replicate 2": 4.08e5, "Renilla control light, replicate 1": 1.02e6, "Renilla control light, replicate 2": 8.88e5}
{"predicted target": "CG7164", "amplicon": "DRSC03018", "firefly reporter light, replicate 1": 1.73e5, "firefly reporter light, replicate 2": 1.85e5, "Renilla control light, replicate 1": 1.73e6, "Renilla control light, replicate 2": 1.51e6}
{"predicted target": "CG7164", "amplicon": "DRSC28704", "firefly reporter light, replicate 1": 4.12e5, "firefly reporter light, replicate 2": 3.40e5, "Renilla control light, replicate 1": 1.12e6, "Renilla control light, replicate 2": 8.42e5}
{"predicted target": "nerfin-1 (nervous fingers 1)", "amplicon": "DRSC08729", "firefly reporter light, replicate 1": 81830, "firefly reporter light, replicate 2": 90721, "Renilla control light, replicate 1": 1.20e6, "Renilla control light, replicate 2": 1.58e6}
{"predicted target": "CG7011", "amplicon": "DRSC09347", "firefly reporter light, replicate 1": 2.07e5, "firefly reporter light, replicate 2": 1.58e5, "Renilla control light, replicate 1": 4.96e5, "Renilla control light, replicate 2": 4.02e5}
{"predicted target": "CG7011", "amplicon": "DRSC28334", "firefly reporter light, replicate 1": 4.94e5, "firefly reporter light, replicate 2": 8.30e5, "Renilla control light, replicate 1": 1.08e6, "Renilla control light, replicate 2": 1.84e6}

Reformatted: entries from further up
CG16781 [DRSC18117]
- firefly reporter light, replicate 1: 3.09e5
- firefly reporter light, replicate 2: 4.25e5
- Renilla control light, replicate 1: 3.73e6
- Renilla control light, replicate 2: 4.28e6

CG16781 [DRSC28112]
- firefly reporter light, replicate 1: 4.35e5
- firefly reporter light, replicate 2: 4.47e5
- Renilla control light, replicate 1: 1.73e6
- Renilla control light, replicate 2: 1.78e6

Ir67b (Ionotropic receptor 67b) [DRSC09876]
- firefly reporter light, replicate 1: 1.54e5
- firefly reporter light, replicate 2: 1.75e5
- Renilla control light, replicate 1: 1.70e6
- Renilla control light, replicate 2: 1.44e6

Further results follow:
{"predicted target": "Tpt (tRNA 2'-phosphotransferase)", "amplicon": "DRSC27217", "firefly reporter light, replicate 1": 2.60e5, "firefly reporter light, replicate 2": 2.78e5, "Renilla control light, replicate 1": 5.48e5, "Renilla control light, replicate 2": 6.11e5}
{"predicted target": "CG14020", "amplicon": "DRSC02350", "firefly reporter light, replicate 1": 82643, "firefly reporter light, replicate 2": 1.28e5, "Renilla control light, replicate 1": 9.98e5, "Renilla control light, replicate 2": 9.47e5}
{"predicted target": "klhl10 (kelch like family member 10)", "amplicon": "DRSC37921", "firefly reporter light, replicate 1": 8.18e5, "firefly reporter light, replicate 2": 7.84e5, "Renilla control light, replicate 1": 1.55e6, "Renilla control light, replicate 2": 1.45e6}
{"predicted target": "klhl10 (kelch like family member 10)", "amplicon": "DRSC38784", "firefly reporter light, replicate 1": 8.40e5, "firefly reporter light, replicate 2": 9.93e5, "Renilla control light, replicate 1": 1.47e6, "Renilla control light, replicate 2": 1.97e6}
{"predicted target": "CG34430", "amplicon": "DRSC06499", "firefly reporter light, replicate 1": 3.79e5, "firefly reporter light, replicate 2": 3.59e5, "Renilla control light, replicate 1": 1.85e6, "Renilla control light, replicate 2": 1.97e6}
{"predicted target": "CG7365", "amplicon": "DRSC10824", "firefly reporter light, replicate 1": 36227, "firefly reporter light, replicate 2": 44993, "Renilla control light, replicate 1": 4.26e5, "Renilla control light, replicate 2": 2.30e5}
{"predicted target": "CG7365", "amplicon": "DRSC28680", "firefly reporter light, replicate 1": 4.05e5, "firefly reporter light, replicate 2": 3.99e5, "Renilla control light, replicate 1": 1.49e6, "Renilla control light, replicate 2": 1.55e6}
